Laboratory results: article PMC7475253
These are yes or no findings as the source states them, for the method shown. For some assays here: In cells and extracts the contact can be indirect. Some binding calls cover weakened binding; strength is not graded here. Where a sequence is shown, tags or fusion partners need not be part of it.

T1: KNAT5 (KNOTTED1-LIKE HOMEOBOX5), yeast two-hybrid fusion (Arabidopsis thaliana) (UniProt P48002)
T1 sequence: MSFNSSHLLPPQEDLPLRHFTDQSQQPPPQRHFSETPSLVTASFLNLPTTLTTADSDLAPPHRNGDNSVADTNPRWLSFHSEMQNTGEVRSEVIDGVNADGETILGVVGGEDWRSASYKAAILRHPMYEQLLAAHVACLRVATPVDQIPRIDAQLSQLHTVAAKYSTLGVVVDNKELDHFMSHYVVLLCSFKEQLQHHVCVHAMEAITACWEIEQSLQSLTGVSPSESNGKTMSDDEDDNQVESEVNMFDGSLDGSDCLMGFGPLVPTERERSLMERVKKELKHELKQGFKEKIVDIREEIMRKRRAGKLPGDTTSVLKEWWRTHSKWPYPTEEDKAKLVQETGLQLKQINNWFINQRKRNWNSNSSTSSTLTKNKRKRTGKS

T2: GST-KNAT5 (Arabidopsis thaliana) (UniProt P48002)
T2 sequence: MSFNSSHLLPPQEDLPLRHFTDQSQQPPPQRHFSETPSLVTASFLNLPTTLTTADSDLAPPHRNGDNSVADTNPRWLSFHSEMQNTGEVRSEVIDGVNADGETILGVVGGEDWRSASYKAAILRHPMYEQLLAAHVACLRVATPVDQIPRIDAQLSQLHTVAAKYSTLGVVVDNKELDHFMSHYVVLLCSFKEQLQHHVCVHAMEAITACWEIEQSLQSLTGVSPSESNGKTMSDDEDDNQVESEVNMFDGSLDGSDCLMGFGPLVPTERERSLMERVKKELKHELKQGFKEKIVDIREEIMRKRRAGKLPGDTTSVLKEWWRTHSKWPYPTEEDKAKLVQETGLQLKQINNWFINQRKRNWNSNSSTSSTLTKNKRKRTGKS


Experiments:
[1] = target: T1, KNAT5 (KNOTTED1-LIKE HOMEOBOX5), yeast two-hybrid fusion (Arabidopsis thaliana); experiment: two-hybrid; Matchmaker Gold system, BD and AD fusions co-transformed into Y2HGold yeast; growth on QDO (SD/-Ade/-His/-Leu/-Trp) and QDO/AbA/X-alpha-gal, recorded after 4 d at 30 °C
[2] = target: T2, GST-KNAT5 (Arabidopsis thaliana); experiment: pull-down; GST-proteins held on GSH magnetic beads, incubated with His-proteins in lysis buffer (140 mM NaCl, 2.7 mM KCl, 10 mM Na2HPO4, 1.8 mM KH2PO4, pH 7.4, 1 mM PMSF) for 2 h at 4 °C; washes with 1.5% Triton X-100; immunoblot with anti-His and anti-GST; only the target purified

binding [1] | binding [2] | Binder
binds | – | OFP1 (OVATE FAMILY PROTEIN1), yeast two-hybrid fusion (protein, UniProt Q9LZW2 1-270) MGNNYRFKLSELIPNAWFYKLRDMSKSKKKNLQSQPNSTTSKKKHHAVPTPTSTTPLSPRPPRRPSHSSKAPPSHPPRKSSGNRLRHRATVDSKSSTTSGDSTTTETGSFSPDFRSDQVLLPDESLTGSWHSPCSSKLSKTATFTPPPELELRPIITKTAATARKTAVNSPAGVRLRMRSPRISVSSSARRSGSSARRSRAVVKASVDPKRDFKESMEEMIAENKIRATKDLEELLACYLCLNSDEYHAIIINVFKQIWLDLNLPPPHSK
– | binds | His-OFP1 (histidine-tagged OFP1) (protein, UniProt Q9LZW2 1-270) MGNNYRFKLSELIPNAWFYKLRDMSKSKKKNLQSQPNSTTSKKKHHAVPTPTSTTPLSPRPPRRPSHSSKAPPSHPPRKSSGNRLRHRATVDSKSSTTSGDSTTTETGSFSPDFRSDQVLLPDESLTGSWHSPCSSKLSKTATFTPPPELELRPIITKTAATARKTAVNSPAGVRLRMRSPRISVSSSARRSGSSARRSRAVVKASVDPKRDFKESMEEMIAENKIRATKDLEELLACYLCLNSDEYHAIIINVFKQIWLDLNLPPPHSK
